Reference: the supplement of paper PMC10849652
The other results are listed elsewhere or left out.

Chains of the proteins cited; added tags and fusions are not shown. Lines headed by an entry give the natural chain unless they say otherwise; changes in a name come on top.
UniProt O14733: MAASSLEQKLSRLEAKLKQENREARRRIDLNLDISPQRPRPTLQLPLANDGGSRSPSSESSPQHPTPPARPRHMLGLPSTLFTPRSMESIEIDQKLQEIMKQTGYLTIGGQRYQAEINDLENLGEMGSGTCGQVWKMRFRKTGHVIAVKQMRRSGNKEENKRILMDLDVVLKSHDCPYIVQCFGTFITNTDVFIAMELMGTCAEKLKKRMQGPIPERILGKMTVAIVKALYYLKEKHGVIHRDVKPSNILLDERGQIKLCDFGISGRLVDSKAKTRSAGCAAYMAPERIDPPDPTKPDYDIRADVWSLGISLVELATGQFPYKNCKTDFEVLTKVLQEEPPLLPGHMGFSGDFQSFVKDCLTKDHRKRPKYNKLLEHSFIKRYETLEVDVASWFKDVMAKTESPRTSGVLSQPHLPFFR
UniProt P43355: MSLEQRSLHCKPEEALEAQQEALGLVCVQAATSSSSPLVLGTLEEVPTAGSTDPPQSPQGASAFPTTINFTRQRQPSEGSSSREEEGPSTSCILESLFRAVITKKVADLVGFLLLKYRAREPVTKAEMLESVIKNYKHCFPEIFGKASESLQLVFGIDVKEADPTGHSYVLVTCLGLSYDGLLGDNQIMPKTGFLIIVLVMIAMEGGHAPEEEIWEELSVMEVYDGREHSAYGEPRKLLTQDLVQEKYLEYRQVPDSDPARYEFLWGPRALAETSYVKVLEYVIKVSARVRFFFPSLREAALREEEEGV
UniProt Q8N5G2: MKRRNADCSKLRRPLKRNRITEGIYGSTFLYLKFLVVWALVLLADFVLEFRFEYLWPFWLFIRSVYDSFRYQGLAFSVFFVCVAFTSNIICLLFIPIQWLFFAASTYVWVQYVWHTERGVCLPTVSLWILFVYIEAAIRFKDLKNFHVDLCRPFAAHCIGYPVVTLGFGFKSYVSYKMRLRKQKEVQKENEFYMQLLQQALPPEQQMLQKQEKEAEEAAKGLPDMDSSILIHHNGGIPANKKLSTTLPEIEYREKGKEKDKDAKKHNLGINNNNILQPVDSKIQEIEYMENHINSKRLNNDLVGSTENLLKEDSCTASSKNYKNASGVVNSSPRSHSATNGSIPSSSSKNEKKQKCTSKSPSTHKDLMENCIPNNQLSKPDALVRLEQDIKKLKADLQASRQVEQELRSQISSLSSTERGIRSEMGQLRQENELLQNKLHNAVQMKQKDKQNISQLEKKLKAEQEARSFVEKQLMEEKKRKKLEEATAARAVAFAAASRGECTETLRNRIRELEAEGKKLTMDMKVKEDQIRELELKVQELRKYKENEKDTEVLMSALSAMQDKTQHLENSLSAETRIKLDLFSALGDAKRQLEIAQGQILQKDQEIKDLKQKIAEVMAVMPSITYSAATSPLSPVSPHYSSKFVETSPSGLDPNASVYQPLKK
UniProt Q16644, whole entry, looked up: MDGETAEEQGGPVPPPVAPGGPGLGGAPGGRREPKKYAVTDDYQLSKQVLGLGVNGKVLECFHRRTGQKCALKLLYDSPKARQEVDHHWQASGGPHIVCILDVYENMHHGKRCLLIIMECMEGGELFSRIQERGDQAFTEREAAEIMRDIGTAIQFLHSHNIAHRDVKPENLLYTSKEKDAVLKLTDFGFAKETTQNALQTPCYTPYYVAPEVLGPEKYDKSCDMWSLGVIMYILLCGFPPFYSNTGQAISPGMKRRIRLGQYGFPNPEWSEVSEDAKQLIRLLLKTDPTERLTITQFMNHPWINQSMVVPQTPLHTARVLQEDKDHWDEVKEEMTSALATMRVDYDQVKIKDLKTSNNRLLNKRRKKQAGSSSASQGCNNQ
UniProt Q9Y4Y9: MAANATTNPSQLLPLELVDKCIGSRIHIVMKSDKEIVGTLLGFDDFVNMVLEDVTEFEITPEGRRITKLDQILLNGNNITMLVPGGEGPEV
UniProt Q9NTJ4: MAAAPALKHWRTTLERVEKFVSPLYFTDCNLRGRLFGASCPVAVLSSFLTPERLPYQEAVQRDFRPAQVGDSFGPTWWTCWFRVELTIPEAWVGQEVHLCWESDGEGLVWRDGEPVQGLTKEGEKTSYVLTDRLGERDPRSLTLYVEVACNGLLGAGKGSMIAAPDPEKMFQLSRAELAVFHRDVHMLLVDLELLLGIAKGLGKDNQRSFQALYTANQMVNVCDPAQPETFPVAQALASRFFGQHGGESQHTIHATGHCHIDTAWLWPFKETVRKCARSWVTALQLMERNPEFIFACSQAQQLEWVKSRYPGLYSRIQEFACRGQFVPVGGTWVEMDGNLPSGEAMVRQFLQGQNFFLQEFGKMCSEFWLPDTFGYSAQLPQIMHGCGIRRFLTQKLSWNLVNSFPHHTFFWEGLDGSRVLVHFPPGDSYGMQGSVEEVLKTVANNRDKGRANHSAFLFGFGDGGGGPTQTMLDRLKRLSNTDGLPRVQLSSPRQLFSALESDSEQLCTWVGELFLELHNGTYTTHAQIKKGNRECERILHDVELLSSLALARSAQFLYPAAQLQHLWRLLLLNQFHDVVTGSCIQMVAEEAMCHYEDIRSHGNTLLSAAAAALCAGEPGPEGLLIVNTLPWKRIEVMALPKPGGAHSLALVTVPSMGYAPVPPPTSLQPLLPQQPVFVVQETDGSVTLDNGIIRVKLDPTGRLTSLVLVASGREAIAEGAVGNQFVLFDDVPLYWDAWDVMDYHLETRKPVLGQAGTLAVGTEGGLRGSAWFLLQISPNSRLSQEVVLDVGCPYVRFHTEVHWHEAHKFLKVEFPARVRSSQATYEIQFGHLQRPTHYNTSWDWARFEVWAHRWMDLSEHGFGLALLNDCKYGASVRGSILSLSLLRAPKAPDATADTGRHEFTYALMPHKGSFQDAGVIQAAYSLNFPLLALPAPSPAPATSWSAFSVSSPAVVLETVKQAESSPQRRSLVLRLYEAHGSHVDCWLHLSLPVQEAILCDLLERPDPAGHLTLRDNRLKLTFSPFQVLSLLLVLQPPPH
UniProt P28482, whole entry, looked up: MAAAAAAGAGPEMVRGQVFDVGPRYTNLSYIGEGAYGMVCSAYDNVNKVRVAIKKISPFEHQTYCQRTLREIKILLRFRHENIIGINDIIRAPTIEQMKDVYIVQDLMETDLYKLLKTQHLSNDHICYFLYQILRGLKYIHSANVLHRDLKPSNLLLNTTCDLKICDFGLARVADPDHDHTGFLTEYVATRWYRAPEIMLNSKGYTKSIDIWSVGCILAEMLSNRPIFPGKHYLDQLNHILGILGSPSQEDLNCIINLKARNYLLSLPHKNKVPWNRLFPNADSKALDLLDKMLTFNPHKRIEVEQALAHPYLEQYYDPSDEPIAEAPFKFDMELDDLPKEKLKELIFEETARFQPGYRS
UniProt Q3MHD2: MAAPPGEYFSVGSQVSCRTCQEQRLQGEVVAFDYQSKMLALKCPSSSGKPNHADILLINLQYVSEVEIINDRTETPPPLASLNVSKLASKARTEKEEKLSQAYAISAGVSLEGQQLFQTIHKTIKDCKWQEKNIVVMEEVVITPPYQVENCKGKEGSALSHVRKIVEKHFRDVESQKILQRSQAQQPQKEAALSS
UniProt P51884: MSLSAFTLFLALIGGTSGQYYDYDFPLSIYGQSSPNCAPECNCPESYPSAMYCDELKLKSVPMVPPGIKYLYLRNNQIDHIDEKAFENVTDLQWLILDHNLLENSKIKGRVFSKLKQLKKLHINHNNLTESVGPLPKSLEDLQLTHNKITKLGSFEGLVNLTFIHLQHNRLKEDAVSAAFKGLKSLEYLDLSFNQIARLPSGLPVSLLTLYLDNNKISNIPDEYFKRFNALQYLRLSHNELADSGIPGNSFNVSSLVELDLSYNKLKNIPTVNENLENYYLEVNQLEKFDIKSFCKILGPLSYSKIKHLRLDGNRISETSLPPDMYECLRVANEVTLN

Columns and labels:
Assay in all cases: log2 fold change, soluble protein after heating vs DMSO (PISA); higher = thermal stabilisation; K562 cells, 10 uM, 30 min; active = over 0.2 and 3.5 SD of the protein, either way, in both replicates (recomputed)
[1] = compound: C1=CC=C(C=C1)[C@H](COC2=CC3=C(C=C2)NC(=O)N3)NC(=O)C4=CC=CN(C4=O)CC5=CC(=C(C=C5)F)F
In short: (§1)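 Soluble protein was defined as the supernatant after 21,000xg for 90 min. It came from K562 cells at 2×10^6 cells/mL given 10 μM compound for 30 min, heated in aliquots for 3 min across 48°C-58°C, pooled, and extracted in PBS with 0.5% NP-40 at 4°C, and was quantified by TMTpro 16plex LC-MS/MS with equalised channel sums. Thermal stability against control samples, from duplicates, is reported as log2 fold change.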

[2] = compound: CC1=C(SC2=C1C(=N[C@H](C3=NN=C(N32)C)CC(=O)N)C4=CC=C(C=C4)Cl)C
In short: as §1

[3] = compound: CC1=C2C(=CC=C1)N=C(N(C2=O)C3=CC=CC=C3C)CN4C=NC5=C(N=CN=C54)N
In short: as §1

[4] = compound: Cc1sc2c(c1C)C(c1ccc(Cl)cc1)=N[C@@H](CC(=O)OC(C)(C)C)c1nnc(C)n1-2
In short: as §1

[5] = compound: c1ccc([C@@H]2C[C@H]2NC2CCNCC2)cc1
In short: as §1

Measured: log2 fold change

MAP2K7 isoform 4 (UniProt O14733)
inactive: [1] -0.009 | [2] 0.029 | [3] 0.065 | [4] 0.013 | [5] 0.044

MAGEA1 (UniProt P43355)
inactive: [1] -0.12 | [2] -0.031 | [5] -0.042

MACO1 (UniProt Q8N5G2)
inactive: [1] -0.025 | [2] 0.038 | [3] -0.008 | [4] 0.03 | [5] -0.048

MAPKAPK3 (UniProt Q16644)
inactive: [1] -0.122 | [2] 0.013 | [3] 0.027 | [4] -0.034 | [5] -0.109

LSM5 (UniProt Q9Y4Y9)
inactive: [1] -0.227 | [2] -0.264 | [4] -0.125 | [5] -0.36

MAN2C1 isoform 4 (UniProt Q9NTJ4)
inactive: [1] -0.082 | [2] -0.006 | [3] 0.002 | [4] -0.016 | [5] 0.051

MAPK1 (UniProt P28482)
inactive: [1] -0.018 | [2] 0.026 | [3] -0.013 | [4] -0.005 | [5] -0.021

LSM12 isoform 2 (UniProt Q3MHD2)
inactive: [1] 0.076 | [2] -0.018 | [3] -0.101 | [4] -0.019 | [5] 0.024

LUM (UniProt P51884)
inactive: [2] -0.05 | [3] 0.087 | [4] 0.144 | [5] 0.143
